Assay results from PMC11658772.
Results are given in words; binding and its absence hold for the method and conditions named. Binding seen in cells or lysates may run through a third protein. Some results given as binding are weak or reduced against the parent protein; the word gives no strength. Tags and fused reporters may be left off the sequences shown.

What was measured:
[1] = molecular target: T1, MSL1^GS-3xHA (K3S R4S F5G K6S W7G) (Drosophila melanogaster) (UniProt P50535); assay: co-IP; Drosophila S2 cells co-transfected with MSL1*-3xHA and MSL2-3xFLAG, 48 hr; extract made with 420 mM NaCl; immunoprecipitation with anti-FLAG, anti-HA or mouse IgG (negative control) magnetic beads in buffer-150 (20 mM Tris-HCl pH 7.4, 150 mM NaCl, 10 mM MgCl2, 0.1% NP-40), overnight at 4 °C; immunoblot with anti-FLAG-HRP
T1 sequence: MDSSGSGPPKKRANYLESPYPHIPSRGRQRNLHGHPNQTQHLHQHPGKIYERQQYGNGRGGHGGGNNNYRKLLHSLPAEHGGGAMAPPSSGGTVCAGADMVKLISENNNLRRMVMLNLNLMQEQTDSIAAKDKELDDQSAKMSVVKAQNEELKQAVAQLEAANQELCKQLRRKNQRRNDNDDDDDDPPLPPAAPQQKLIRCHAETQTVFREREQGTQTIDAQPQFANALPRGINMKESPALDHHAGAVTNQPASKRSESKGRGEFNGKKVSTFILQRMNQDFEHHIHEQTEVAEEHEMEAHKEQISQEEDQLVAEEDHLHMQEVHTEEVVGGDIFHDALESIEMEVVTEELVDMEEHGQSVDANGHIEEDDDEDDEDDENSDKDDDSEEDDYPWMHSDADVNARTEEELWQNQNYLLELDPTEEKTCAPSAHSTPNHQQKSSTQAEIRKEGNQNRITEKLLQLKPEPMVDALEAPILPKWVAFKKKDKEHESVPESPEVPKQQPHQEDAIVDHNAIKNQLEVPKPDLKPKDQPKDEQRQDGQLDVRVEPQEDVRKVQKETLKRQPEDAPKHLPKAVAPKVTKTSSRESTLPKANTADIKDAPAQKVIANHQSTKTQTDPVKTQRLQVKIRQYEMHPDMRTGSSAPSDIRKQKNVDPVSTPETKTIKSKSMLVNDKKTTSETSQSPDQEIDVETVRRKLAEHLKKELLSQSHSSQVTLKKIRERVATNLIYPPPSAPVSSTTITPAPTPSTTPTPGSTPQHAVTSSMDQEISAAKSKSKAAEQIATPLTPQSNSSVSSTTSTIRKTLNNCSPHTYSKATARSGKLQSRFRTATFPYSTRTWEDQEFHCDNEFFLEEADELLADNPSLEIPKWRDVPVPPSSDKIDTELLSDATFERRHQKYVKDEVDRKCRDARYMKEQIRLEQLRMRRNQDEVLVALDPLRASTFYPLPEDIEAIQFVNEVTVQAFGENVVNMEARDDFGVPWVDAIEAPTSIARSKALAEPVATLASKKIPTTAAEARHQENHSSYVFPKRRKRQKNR

[2] = molecular target: T2, MSL1^Δ24-39-3xHA (Drosophila melanogaster) (UniProt P50535); assay: as above
T2 sequence: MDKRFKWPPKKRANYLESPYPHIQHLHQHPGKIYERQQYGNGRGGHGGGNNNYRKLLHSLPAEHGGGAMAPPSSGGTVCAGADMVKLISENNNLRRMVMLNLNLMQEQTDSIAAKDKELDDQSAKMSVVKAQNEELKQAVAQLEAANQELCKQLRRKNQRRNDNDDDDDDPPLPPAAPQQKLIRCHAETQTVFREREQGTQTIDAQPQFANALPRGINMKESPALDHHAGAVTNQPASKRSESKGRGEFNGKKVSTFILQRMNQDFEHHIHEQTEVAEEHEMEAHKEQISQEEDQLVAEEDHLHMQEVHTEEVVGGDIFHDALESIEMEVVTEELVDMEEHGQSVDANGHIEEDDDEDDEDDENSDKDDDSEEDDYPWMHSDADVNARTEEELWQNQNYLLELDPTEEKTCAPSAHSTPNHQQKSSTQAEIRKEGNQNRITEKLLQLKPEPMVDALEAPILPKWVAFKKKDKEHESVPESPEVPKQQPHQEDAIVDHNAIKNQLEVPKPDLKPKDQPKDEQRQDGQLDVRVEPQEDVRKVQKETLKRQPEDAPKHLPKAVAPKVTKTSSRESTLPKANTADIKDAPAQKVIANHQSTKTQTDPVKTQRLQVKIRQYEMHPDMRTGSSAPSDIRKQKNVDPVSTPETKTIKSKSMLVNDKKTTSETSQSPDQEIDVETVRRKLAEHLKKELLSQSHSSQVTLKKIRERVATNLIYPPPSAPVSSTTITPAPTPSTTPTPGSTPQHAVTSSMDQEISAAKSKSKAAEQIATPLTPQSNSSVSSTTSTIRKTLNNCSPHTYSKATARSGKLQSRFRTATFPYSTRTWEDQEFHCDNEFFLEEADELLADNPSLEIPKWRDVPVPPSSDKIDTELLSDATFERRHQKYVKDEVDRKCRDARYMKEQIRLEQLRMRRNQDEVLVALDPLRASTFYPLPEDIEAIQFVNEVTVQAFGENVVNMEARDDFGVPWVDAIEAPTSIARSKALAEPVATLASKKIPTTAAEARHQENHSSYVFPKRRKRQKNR

binding [1]: binds
binding [2]: binds
B1: MSL2-3xFLAG (protein, UniProt P50534 1-773)
chain: MAQTAYLKVTRIAMRSASNLSKRRVEELNSGLGELRQLLSCVVCCQLLVDPYSPKGKRCQHNVCRLCLRGKKHLFPSCTQCEGCSDFKTYEENRMMAAQLLCYKTLCVHLLHSALFGELAGMRPQVARELVPRIKLPPKTTQEFIREGSNISDTFDIFLPQPDLPFLKDMPTSLPAETPPTSAVTTPELPYDHHLNISDIEAEAAATAEQGHFSPLPLLPTGSRMGMLSHAGQIVIATESSESGFMDQAWTDQVDLSGTVSVSKYTNSGNNFAVSYVMPTSATTKFDPQELQIGQVVQMADSTQLAVLAAVEETVETSTQLTVLSTTVEETVETSTQLEVLTSAEEPNEISDQLANLQVEESDEALVEETVEEAEGTSIPSEVVAEHMEEDQHLDVHTSQSPTQTEMEEAVEEHVATKTQLGHVQTELQDAESLQKDFEDAKAAAEEAKEKEKDLHAISAELQKEDSDEPTLKRKRTRTLKASQAAKIEPVPSEVKTKVQSGKGALRRIRGKDKEEKVKPPKPKCRCGISGSSNTLTTCRNSRCPCYKSYNSCAGCHCVCCKNPHKEDYVESDEDDDLEDFEMPKDVPEPMTQSEEPVVAEPRQEENSMAPPDSSAPISLVPLNNLQQSQHPLVLVQNEKGEYQGFNIFQGSKPLDPVTVGFTIRVQLQHTDGFGSLPQYAYIMPTIDPPNPPAPSLSPPPPPAPDREVIEPPAKKFRTSRTRRGRANFSALDTVDELVSGGSRSNSAAGDRSSATDNAHSLFEEIMSGSDDL
